In test [1] the target is T1, Rluc-HO-1 (heme oxygenase 1 with an N-terminal Rluc tag) (human) (UniProt P09601).
T1 sequence: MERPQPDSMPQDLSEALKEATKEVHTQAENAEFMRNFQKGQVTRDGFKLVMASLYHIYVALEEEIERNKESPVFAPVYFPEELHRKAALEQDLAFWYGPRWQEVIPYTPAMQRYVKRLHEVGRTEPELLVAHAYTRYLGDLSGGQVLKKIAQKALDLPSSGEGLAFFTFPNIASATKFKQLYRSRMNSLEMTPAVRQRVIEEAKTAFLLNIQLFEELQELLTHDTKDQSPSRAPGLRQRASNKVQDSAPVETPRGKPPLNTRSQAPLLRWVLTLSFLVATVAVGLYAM
Put plainly: FRET or BRET; BRET screen in living HEK 293T/17 cells, 48 h after transfection; GFP-tagged P450 expressed 15- to 30-fold above Rluc-tagged HO-1 to approach BRETmax; coelenterazine 400A.

Sequences of proteins named here, by UniProt entry; tags and fusion partners are left off.
UniProt P10635: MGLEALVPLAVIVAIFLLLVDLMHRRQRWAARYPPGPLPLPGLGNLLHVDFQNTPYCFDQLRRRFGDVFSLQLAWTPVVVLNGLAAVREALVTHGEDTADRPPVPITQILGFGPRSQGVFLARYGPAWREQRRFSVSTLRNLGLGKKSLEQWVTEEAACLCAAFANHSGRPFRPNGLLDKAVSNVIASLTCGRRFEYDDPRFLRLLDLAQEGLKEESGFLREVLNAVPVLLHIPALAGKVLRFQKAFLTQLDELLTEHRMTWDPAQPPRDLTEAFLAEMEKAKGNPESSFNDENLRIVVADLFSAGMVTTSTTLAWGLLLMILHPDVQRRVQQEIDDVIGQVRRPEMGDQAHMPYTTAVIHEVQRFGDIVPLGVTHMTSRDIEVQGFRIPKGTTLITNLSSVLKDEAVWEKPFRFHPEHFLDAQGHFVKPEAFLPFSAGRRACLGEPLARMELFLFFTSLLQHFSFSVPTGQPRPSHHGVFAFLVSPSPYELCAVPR

The target of test [2] is T2, CYP1A2-GFP (rabbit cytochrome P450 1A2 with a C-terminal GFP2 tag) (rabbit) (UniProt P00187).
T2 sequence: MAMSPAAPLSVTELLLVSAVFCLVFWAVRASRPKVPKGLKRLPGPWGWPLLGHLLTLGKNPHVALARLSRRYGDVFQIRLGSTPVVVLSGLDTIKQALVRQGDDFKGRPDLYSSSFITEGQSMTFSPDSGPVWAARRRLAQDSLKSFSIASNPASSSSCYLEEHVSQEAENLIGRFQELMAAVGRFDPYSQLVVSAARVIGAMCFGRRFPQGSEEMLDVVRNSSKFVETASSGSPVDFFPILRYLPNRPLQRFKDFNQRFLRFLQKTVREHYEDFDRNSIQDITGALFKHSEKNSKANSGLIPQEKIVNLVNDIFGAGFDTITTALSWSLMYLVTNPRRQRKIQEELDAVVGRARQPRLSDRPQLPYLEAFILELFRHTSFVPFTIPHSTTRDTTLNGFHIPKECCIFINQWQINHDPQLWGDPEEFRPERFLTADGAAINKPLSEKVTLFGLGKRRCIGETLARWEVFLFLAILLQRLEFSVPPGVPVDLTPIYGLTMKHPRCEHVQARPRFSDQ
Put plainly: FRET or BRET; BRET saturation curves in living HEK 293T/17 cells, 24 h after transfection, over a range of GFP-to-Rluc ratios at like total expression, fit to a hyperbola; for CYP1A2-GFP with Rluc-HO-1 also at a fixed ratio (>38:1) over a range of DNA amounts; coelenterazine 400A. A general note: BRET reads energy transfer from a luciferase to a nearby fluorophore.

In test [3] the target is T3, POR-Rluc (NADPH-cytochrome P450 reductase with a C-terminal Rluc tag) (human) (UniProt P16435).
T3 sequence: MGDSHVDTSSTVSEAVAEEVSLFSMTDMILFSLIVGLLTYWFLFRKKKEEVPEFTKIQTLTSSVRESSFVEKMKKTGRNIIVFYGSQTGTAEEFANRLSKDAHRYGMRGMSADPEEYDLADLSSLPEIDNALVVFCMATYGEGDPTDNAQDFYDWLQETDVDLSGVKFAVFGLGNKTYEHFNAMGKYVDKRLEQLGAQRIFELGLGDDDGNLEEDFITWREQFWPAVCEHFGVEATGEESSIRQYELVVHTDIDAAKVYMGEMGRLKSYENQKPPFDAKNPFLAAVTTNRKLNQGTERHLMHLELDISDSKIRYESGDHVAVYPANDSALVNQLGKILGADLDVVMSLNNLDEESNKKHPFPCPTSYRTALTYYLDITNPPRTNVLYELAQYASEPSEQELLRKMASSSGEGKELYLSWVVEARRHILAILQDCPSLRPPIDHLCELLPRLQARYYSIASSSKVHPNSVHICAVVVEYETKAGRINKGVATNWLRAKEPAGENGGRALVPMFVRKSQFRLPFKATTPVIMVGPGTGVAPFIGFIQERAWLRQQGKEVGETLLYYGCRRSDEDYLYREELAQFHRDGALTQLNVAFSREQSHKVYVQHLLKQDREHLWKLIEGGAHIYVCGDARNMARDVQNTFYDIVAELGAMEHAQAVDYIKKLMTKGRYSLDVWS
The test is described as above.

The target of test [4] is T1, Rluc-HO-1 (heme oxygenase 1 with an N-terminal Rluc tag) (human). Described as above.
Test [5] addresses T2, CYP1A2-GFP (rabbit cytochrome P450 1A2 with a C-terminal GFP2 tag) (rabbit). Nature of the test: FRET or BRET; BRET of a tagged pair in living HEK 293T/17 cells with a cotransfected untagged third protein (500 ng POR DNA, 500 ng or 2000 ng HO-1 DNA, 2 ug CYP1A2 DNA), 24 h after transfection, compared with the pair alone.

These are yes or no findings as the source states them, for the method shown. In cells and extracts the contact can be indirect. Some binding calls cover weakened binding; strength is not graded here. Where a sequence is shown, tags or fusion partners need not be part of it.

With “CYP2D6-GFP (human cytochrome P450 2D6 with a C-terminal GFP2 tag) (from UniProt P10635 1-497) (enzyme)”, the binding entry in test [1] was “binds”.

B1: CYP1A2-GFP (rabbit cytochrome P450 1A2 with a C-terminal GFP2 tag) (enzyme, UniProt P00187 1-516)
chain: MAMSPAAPLSVTELLLVSAVFCLVFWAVRASRPKVPKGLKRLPGPWGWPLLGHLLTLGKNPHVALARLSRRYGDVFQIRLGSTPVVVLSGLDTIKQALVRQGDDFKGRPDLYSSSFITEGQSMTFSPDSGPVWAARRRLAQDSLKSFSIASNPASSSSCYLEEHVSQEAENLIGRFQELMAAVGRFDPYSQLVVSAARVIGAMCFGRRFPQGSEEMLDVVRNSSKFVETASSGSPVDFFPILRYLPNRPLQRFKDFNQRFLRFLQKTVREHYEDFDRNSIQDITGALFKHSEKNSKANSGLIPQEKIVNLVNDIFGAGFDTITTALSWSLMYLVTNPRRQRKIQEELDAVVGRARQPRLSDRPQLPYLEAFILELFRHTSFVPFTIPHSTTRDTTLNGFHIPKECCIFINQWQINHDPQLWGDPEEFRPERFLTADGAAINKPLSEKVTLFGLGKRRCIGETLARWEVFLFLAILLQRLEFSVPPGVPVDLTPIYGLTMKHPRCEHVQARPRFSDQ
On to B1, for which the binding entry in test [1], in test [2], in test [3] and in test [4] was “binds” in each case.

B2: Unlabeled HO-1 (untagged heme oxygenase 1) (enzyme, UniProt P09601 1-288)
chain: MERPQPDSMPQDLSEALKEATKEVHTQAENAEFMRNFQKGQVTRDGFKLVMASLYHIYVALEEEIERNKESPVFAPVYFPEELHRKAALEQDLAFWYGPRWQEVIPYTPAMQRYVKRLHEVGRTEPELLVAHAYTRYLGDLSGGQVLKKIAQKALDLPSSGEGLAFFTFPNIASATKFKQLYRSRMNSLEMTPAVRQRVIEEAKTAFLLNIQLFEELQELLTHDTKDQSPSRAPGLRQRASNKVQDSAPVETPRGKPPLNTRSQAPLLRWVLTLSFLVATVAVGLYAM
Consider B2, for which the binding entry in test [5] is on record as “binds”.

B3: GFP-HO-1 (heme oxygenase 1 with an N-terminal GFP2 tag) (enzyme, UniProt P09601 1-288)
chain: MERPQPDSMPQDLSEALKEATKEVHTQAENAEFMRNFQKGQVTRDGFKLVMASLYHIYVALEEEIERNKESPVFAPVYFPEELHRKAALEQDLAFWYGPRWQEVIPYTPAMQRYVKRLHEVGRTEPELLVAHAYTRYLGDLSGGQVLKKIAQKALDLPSSGEGLAFFTFPNIASATKFKQLYRSRMNSLEMTPAVRQRVIEEAKTAFLLNIQLFEELQELLTHDTKDQSPSRAPGLRQRASNKVQDSAPVETPRGKPPLNTRSQAPLLRWVLTLSFLVATVAVGLYAM
For B3, the binding entry in test [3] was “binds”.

B4: CYP1A1-GFP (human cytochrome P450 1A1 with a C-terminal GFP2 tag) (enzyme, UniProt P04798 1-512)
chain: MLFPISMSATEFLLASVIFCLVFWVIRASRPQVPKGLKNPPGPWGWPLIGHMLTLGKNPHLALSRMSQQYGDVLQIRIGSTPVVVLSGLDTIRQALVRQGDDFKGRPDLYTFTLISNGQSMSFSPDSGPVWAARRRLAQNGLKSFSIASDPASSTSCYLEEHVSKEAEVLISTLQELMAGPGHFNPYRYVVVSVTNVICAICFGRRYDHNHQELLSLVNLNNNFGEVVGSGNPADFIPILRYLPNPSLNAFKDLNEKFYSFMQKMVKEHYKTFEKGHIRDITDSLIEHCQEKQLDENANVQLSDEKIINIVLDLFGAGFDTVTTAISWSLMYLVMNPRVQRKIQEELDTVIGRSRRPRLSDRSHLPYMEAFILETFRHSSFVPFTIPHSTTRDTSLKGFYIPKGRCVFVNQWQINHDQKLWVNPSEFLPERFLTPDGAIDKVLSEKVIIFGMGKRKCIGETIARWEVFLFLAILLQRVEFSVPLGVKVDMTPIYGLTMKHACCEHFQMQLRS
Turning to B4, the binding result in test [1] is “binds”.

The values above are taken from paper PMC7948974, “Heme oxygenase-1 affects cytochrome P450 function through the formation of heteromeric complexes: Interactions between CYP1A2 and heme oxygenase-1” (The Journal of Biological Chemistry, 2020).
